Paper PMC7819943, “Rice protein-binding microarrays: a tool to detect cis-acting elements near promoter regions in rice”
The other results are listed elsewhere or left out.

Chains of the proteins cited; added tags and fusions are not shown.
UniProt Q0JBA9, entry or part of it: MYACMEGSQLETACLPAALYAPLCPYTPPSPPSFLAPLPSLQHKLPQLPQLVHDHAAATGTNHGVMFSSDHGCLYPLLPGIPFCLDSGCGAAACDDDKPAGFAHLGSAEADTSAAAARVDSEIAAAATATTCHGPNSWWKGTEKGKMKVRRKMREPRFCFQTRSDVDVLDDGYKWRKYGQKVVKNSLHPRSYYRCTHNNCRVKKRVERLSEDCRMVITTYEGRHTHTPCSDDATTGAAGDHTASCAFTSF

biological target: OsWRKY34 (Oryza sativa, UniProt Q0JBA9 1-250); assay: protein-binding microarray (RPBM); PBS, 2% BSA, 51.3 ng/ul salmon testes DNA, 50 uM zinc acetate, 200 nM TF, 25 C, 1 h; high values mean tight binding; settings: protein: recombinant; tags: N-terminal polyhistidine and DsRed monomer fusion (pET32a); label: CyDye5-dUTP incorporated in the synthesized complementary strand; 3' TTTTT single-stranded linker to array surface; dsDNA, one strand shown
In short: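 Binding signal is defined as the fluorescence intensity of each feature in arbitrary units, read on an Axon 4000B scanner. Transcription factors with N-terminal polyhistidine and DsRed fusions came from E. coli BL21-CodonPlus and were purified on Ni–NTA. They were incubated at 200 nM for 1 h at 25 °C on a custom Agilent array that had been made double-stranded with Cy5-dUTP, with 50 µM zinc acetate present, and the array was washed.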

Sequence	binding signal
TGTACTCGTCACGTCATATGCTTCGCACCTGTGCAAGCTGCGGAGTCACCTAGTGCAG	8160 fluorescence intensity (a.u.)
GGTTTGGTTTCAGTCTTTTGTGCAAGTACTAGTACTTGCCCGGAGTCACCTAGTGCAG	10500 fluorescence intensity (a.u.)
CACCCTGCTTCTGATTTTTAACTTTTGTTCCTTTTACCAACGGAGTCACCTAGTGCAG	8260 fluorescence intensity (a.u.)
ATGCCGTGAACATGATCCCTTCCATTAGAGTACTTTGTTTCGGAGTCACCTAGTGCAG	9700 fluorescence intensity (a.u.)
GTAATACTCCTTCCGTTTTATATTATAAGTCATTTAGTTTCGGAGTCACCTAGTGCAG	10300 fluorescence intensity (a.u.)
ATAGTTTCGATATCACCTTTGCCTTTTATTTTACCCTTGTCGGAGTCACCTAGTGCAG	11800 fluorescence intensity (a.u.)
TTTCCGTATATTTTGAATTCAGTCCCATCATTTTTTCCTACGGAGTCACCTAGTGCAG	9940 fluorescence intensity (a.u.)
AGCAGGGAGTACAAATTTGACTTTTCAAAAATTCCCCTACCGGAGTCACCTAGTGCAG	8120 fluorescence intensity (a.u.)
GGTTTTGTGTTATTATGTTTTAAAACATGTGACTTATGAACGGAGTCACCTAGTGCAG	8190 fluorescence intensity (a.u.)
TTTATAACTTTTTCATCTATATGCAGTCTCTAAGTTTTTACGGAGTCACCTAGTGCAG	8150 fluorescence intensity (a.u.)
TAAGTTGGGGTCATGTTGTATATGGTATTTGGGTTAAAGACGGAGTCACCTAGTGCAG	13100 fluorescence intensity (a.u.)
CTCTCGGTCGTCGGCCTCGTCCTCCGGGCCGGCATTCATCCGGAGTCACCTAGTGCAG	8560 fluorescence intensity (a.u.)
GCAGCCGATTGGACTCGATCCTATCCTATCCTATCCTATCCGGAGTCACCTAGTGCAG	11400 fluorescence intensity (a.u.)
TTGGATTGGCTGCTTCCCTGTGCTGGTTCAGTGATCCCTGCGGAGTCACCTAGTGCAG	8150 fluorescence intensity (a.u.)
TCAGTCCTCCACATGACCCCACCTGTCATCCACATCACCGCGGAGTCACCTAGTGCAG	8310 fluorescence intensity (a.u.)
CCCATCTCGCTAGCCGCCGCCGGCCACAACCATTCCTCACCGGAGTCACCTAGTGCAG	9570 fluorescence intensity (a.u.)
CGGTGGTTTCGTGGGCTTTTTGCACTGTGGCGATAGAGGACGGAGTCACCTAGTGCAG	8160 fluorescence intensity (a.u.)
GGGCGGTGCATTGGAGACGATAGGGGTGTAGGTCGTGTTCCGGAGTCACCTAGTGCAG	8600 fluorescence intensity (a.u.)
CAGGCGCTCGCGGTCGGGGTCGGGGAGGAGGGAGAATCTCCGGAGTCACCTAGTGCAG	9860 fluorescence intensity (a.u.)
GTTTCTTTTTTATTATTATTTTTCCAGCGAGCGACCTCTCCGGAGTCACCTAGTGCAG	9010 fluorescence intensity (a.u.)
TACTACCTTTTCTTTTCGATCCGCGTATTTGAATTGACTTCGGAGTCACCTAGTGCAG	10700 fluorescence intensity (a.u.)

Shown comma-delimited: entries from further up.
Sequence,binding signal
ATGCCGTGAACATGATCCCTTCCATTAGAGTACTTTGTTTCGGAGTCACCTAGTGCAG,9700 fluorescence intensity (a.u.)
TAAGTTGGGGTCATGTTGTATATGGTATTTGGGTTAAAGACGGAGTCACCTAGTGCAG,13100 fluorescence intensity (a.u.)

Additional results follow.

Sequence	binding signal
GATCTAGAAGGCGACTCCAATTATCACCACATTTACAATTCGGAGTCACCTAGTGCAG	8130 fluorescence intensity (a.u.)
TAACCAGACCGTCACTGATACATGGGTCCCATAGTTTTTTCGGAGTCACCTAGTGCAG	10500 fluorescence intensity (a.u.)
ACATGGACATATGTTACCACCGTCAATCAGCTTTGCTATTCGGAGTCACCTAGTGCAG	9750 fluorescence intensity (a.u.)
CCAACCTCTTTTTTCTATCCCTTCGCGTGGGAAAAAGGAACGGAGTCACCTAGTGCAG	8390 fluorescence intensity (a.u.)
CCTATATACGACTACCTTTATATACTACTCTATTCATTTCCGGAGTCACCTAGTGCAG	10400 fluorescence intensity (a.u.)
AGCTGCCCAGTCATTAGCATGGTACTTCCTCCGTTTTATACGGAGTCACCTAGTGCAG	8440 fluorescence intensity (a.u.)
ACCATCCATCTTTGTCTTTACCTATTGGACCACTAGAACACGGAGTCACCTAGTGCAG	9890 fluorescence intensity (a.u.)
CTCCACACCATCATCACGCGTCAGTGTGTCACGTGACTCACGGAGTCACCTAGTGCAG	8070 fluorescence intensity (a.u.)
ATTGTTTTTTTTCTTTCTTTTTGCAAATCTCGCTTCGCTTCGGAGTCACCTAGTGCAG	8540 fluorescence intensity (a.u.)
TCCCTCTCTCTCTCTAAAACCTCGCTGTCTTTCTCTATCTCGGAGTCACCTAGTGCAG	9010 fluorescence intensity (a.u.)
CTCCACCCCGATGGCCCGATCTCCGCGACCCACCTGCGCACGGAGTCACCTAGTGCAG	8230 fluorescence intensity (a.u.)
AATGAGTAGGCTGTGTTAATGTGGACTGTTTGTGTGTTGACGGAGTCACCTAGTGCAG	9120 fluorescence intensity (a.u.)
CTCACCTGCTTCTCCTGCTCGAGCGTACGTTTCAACGCCACGGAGTCACCTAGTGCAG	8060 fluorescence intensity (a.u.)
CGATGTGTATTTGAAGATGCTTATCCTAATTAACCTTGCTCGGAGTCACCTAGTGCAG	8310 fluorescence intensity (a.u.)
GAAATGTTGGTGACGGTGGAGGATTTTGTTGTTTTAGTGTCGGAGTCACCTAGTGCAG	9790 fluorescence intensity (a.u.)
TGACACATGAATGATTTTTTTACTATGTTTGCCATATTGTCGGAGTCACCTAGTGCAG	10700 fluorescence intensity (a.u.)
ACATGCTAGCTTCTTTTTCTCTGAACATTTAGCATTGTTCCGGAGTCACCTAGTGCAG	9620 fluorescence intensity (a.u.)
CTATAAGTTCTCACGTCTAATTTTCATCGTCCGTCTTATTCGGAGTCACCTAGTGCAG	10400 fluorescence intensity (a.u.)
CTGTGCCTTCAAGAGAATAGGTTCGTTTGTCTCTTCCATTCGGAGTCACCTAGTGCAG	8300 fluorescence intensity (a.u.)
AACCCTACACACCCCGGTCAAGCTGTCTATTGATCGGTTACGGAGTCACCTAGTGCAG	12600 fluorescence intensity (a.u.)
ACCTCACCTATAAGCCTCCCGTCGGTCGCCACCGCTTCTCCGGAGTCACCTAGTGCAG	8230 fluorescence intensity (a.u.)
